This is a selection; strong and weak results do not stand in their true shares. At the low end of the ranking the order means little.
Molecular target: T1, FLI1 (UniProt Q01543)
T1 sequence: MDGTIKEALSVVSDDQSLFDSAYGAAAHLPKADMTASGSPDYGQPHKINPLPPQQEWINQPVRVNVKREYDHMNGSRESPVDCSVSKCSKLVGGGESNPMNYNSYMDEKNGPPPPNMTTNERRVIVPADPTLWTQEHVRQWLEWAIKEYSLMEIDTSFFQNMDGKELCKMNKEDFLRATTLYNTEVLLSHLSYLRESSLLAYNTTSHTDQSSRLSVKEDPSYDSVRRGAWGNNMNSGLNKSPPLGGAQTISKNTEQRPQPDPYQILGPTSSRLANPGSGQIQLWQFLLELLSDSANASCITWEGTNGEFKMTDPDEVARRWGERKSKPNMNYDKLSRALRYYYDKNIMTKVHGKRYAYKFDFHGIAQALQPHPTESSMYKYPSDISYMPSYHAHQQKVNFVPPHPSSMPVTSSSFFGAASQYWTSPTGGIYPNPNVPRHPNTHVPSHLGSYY
Test: DAPPL (digital affinity profiling via proximity ligation, sequencing)
Conditions: 10 mM Tris-HCl pH 7.5, 50 mM NaCl, 1 mM DTT, 4% glycerol, room temperature, 30 min; GST-TFs on glutathione beads, 16-mer random dsDNA library, 0.1% …; high values mean tight binding; double strand, one strand shown; scale: fold enrichment (6-mer frequency, TF over GST control)

Sequence	binding signal
TATGCT	1.28
CGCGCT	1.25
TTTCCG	3.86
CCGCAT	1.61
AGAAAA	0.978
CCACTA	1.1
TTCGAT	1.32
ATTAGG	1.06
TACACA	1.21
TCCGCG	1.25
GCCTAA	1.22
ATTTTA	1.32
AAGATC	0.995
GCACTC	1.29
AATAAA	1.2
ATTACT	1.3
CATGGT	1.25
ACGCTT	1.4
CCCCTC	1.48
CGTCAA	1.2

Sequence	binding signal
AGTGCT	1.47
TCATCA	1.18
CACCTT	1.36
TGATTT	1.29
CCCCTG	1.22
ACACCT	1.1
TGGGTT	1.17
TACTCC	1.3
TCTACC	1.54
AAGCTT	1.31
TTCTAT	1.4
ACACAA	1.14
CAAACA	0.995
TGCATT	1.34
TTGTTC	1.5
ATAAGC	1.02
TAACTA	1.36
TGCCCA	1.21
CAACGA	1.05

Laid out differently: entries from further up

| Sequence | binding signal |
| --- | --- |
| TCCGCG | 1.25 |
| CCCCTC | 1.48 |
| TACTCC | 1.3 |

— article PMC7862700
